In PubChem BioAssay AID1347423 (Functional Genomics Laboratory (NCATS/FGL), 2020) one finds z-score data, which are given here for 29 sequences.

Hit rate of the full screen: of about 52,000 sequences, about 210 (0.4%) were called active.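 How the source made its calls: active means gene whose silencing raises cell survival under the drug, median off-target-corrected z-score across its silencing RNAs 2 or more; inactive means the rest.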 This is one part of the list.

A short description of this test: Resistance to Poly (ADP-Ribose) Polymerase inhibitor: Gene Identification via Genome-wide siRNA Screen. The following applies: mouse BRCA2 R2336H ES cells, olaparib, CellTiter-Glo viability; stronger effect = higher value. In outline:
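Mouse BRCA2 R2336H ES cells were reverse-transfected with siRNA (20 nM final), treated at 48 h with 500 nM olaparib, and read by CellTiter-Glo after 72 h. Scores: MAD-based z per siRNA, median per gene, seed off-target correction.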
On the technique in general: Cellular ATP, detected with luciferase, serves as a proxy for viable cell number.
In the case of “GACUGCUAAACAAUAUGCUTT against 4930506M07Rik”, the z-score was inactive: 0.608. For CAAACCCAUGUUCUAAAUGTT against Oog3, the z-score is inactive: 0.339.

Regarding CCAGCAUGCGUGAUGUCUATT against Gdi1, the z-score was inactive: -2.17. For GGGAGAGAGAAAAAGAAAATT against Park7, the z-score is inactive: -1.45.

Regarding “GAUCCUCACGAAAUAGGUATT against GA_x5J8B7TQSKC-412-5”, the z-score was inactive: -0.191. The same measure for GGUUACUGCUACCUAUAACTT against Ttid: inactive: -0.133; for CGCAGUCCUGUCAGACUUUTT against AJ430384: inactive: 1.23. With GCACCUCUAUGAGAGGACATT against Anxa8, the z-score was inactive: 0.362. For GGCAAAUUCGAAAUAGACATT against Evx2, the z-score was inactive: 0.624. Next, “GGCCUGUCCAGUGAUGAUGTT against 1810007M14Rik”: inactive: -0.84. CCCAUAAGUAUUAAAGUGGTT against Acdc: the z-score was inactive: 1.08.

Regarding GGAAAAUGUCACUUUAUGGTT against Fcgr1, the z-score was inactive: 0.116. Turning to CGCAUUUGAAAAAGAGUGGTT against Ndufs5, the z-score is inactive: 1.35.

For GGAUGUUCUGUUCUUGAAGTT against Pgk1, the z-score was inactive: 0.266. In the case of “CCUCCAAGAUCACUGAACATT against 2410018L13Rik”, the z-score was inactive: -2.35.

With GGCUUCUUCCUUGAGAGUCTT against Tgfa, the z-score is inactive: -0.114. In the case of “GCAGCCUUAUACUUCUCACTT against E330008O22Rik”, the z-score was inactive: -1.49.

As to AGUGCUCAUUAACUGUCGCTT against Snrpd2, the z-score was inactive: -2.74.

Turning to CCUCAAGGGCUGAUGCAUGTT against Gpkow, the z-score was inactive: -1.27. Regarding GGCUGAAGAGAAUCUUUUATT against Il9r, the z-score was inactive: 1.54. CGGAUGUGAGAAAAGAGUUTT against Ndufc1: the z-score is inactive: 1.34.

“GGUCAAGAGGAGGGUACCUTT against A430097D04Rik”: the z-score is inactive: -0.603. Consider GGUCACUUCCUUAAUUUUATT against Disc1, for which the z-score is inactive: 0.597.

As for GGGACAAUCAACACAAAAUTT against Ythdf3, the z-score was inactive: 1.76. On to GGAAGAUGCCAUUUAUUGGTT against Sgpl1, for which the z-score is inactive: 0.24. In the case of CGGAAUCUGACUGGUAUCGTT against Banp, the z-score is inactive: -2.47. The same measure for CGGACUCGAUAACCAUCAGTT against Smurf1: inactive: -0.26; for GGAUCUCUGUUUCUCAAAATT against Slc19a3: inactive: 0.771; for GGUGCAGCACUUCAAAGUGTT against Grap: inactive: -0.586.
